A short description of this data set: Adsorption of β-gal onto Dynabeads (HIPD), BCA protein determination. The class given is binding. Conditions: Langmuir-Freundlich. The protocol: To determine the amount (μg) of β-gal that was bound to Dynabeads® (HIPD), a BCA protein assay was performed according to the manufacturer's protocol. A standard curve with BSA was established in a range from 0 to 2 mg/ml. The analysis was performed at 540 nm.
A dilution series of purified β-gal wildtype and E537D mutant was prepared in a concentration range from 0 to 0.4 mg/ml. The dilution series was incubated with the beads (25 μl) for 10 min at 25° C. according to the manufacturer's protocol to ensure optimal adsorption of β-gal onto the beads. The beads were subsequently separated from the solution with a magnet and the supernatant was removed and analysed as described immediately above. The beads were then washed three times in dialysis buffer and the supernatant of the wash steps were also analysed for protein content.
The experimental procedure described above was repeated at 4 and 37° C.
Purified β-gal (wildtype and E537D mutant), was incubated with the beads (25 μl) at room temperature and optimal concentration to ensure maximum binding. The supernatant was removed from the solution at regular time intervals for 10 min. The collected fractions were assayed for protein content as described above. Analysis of β-gal bound to the beads took place with SDS-PAGE and Western blot analyses as outlined above.

“wildtype β-gal: N-terminal His-tagged wildtype E. coli β-galactosidase (lacZ product), expressed and IMAC purified [reference compound]”: the “qm (μg β-gal/mg beads)” value is, setting by setting: (4° C.) 12.12 ± 1.040 μg β-gal/mg beads; (25° C., listed as Wildtype) 45.88 ± 1.422 μg β-gal/mg beads; (25° C., listed as wildtype) 45.88±1.422 μg β-gal/mg beads; (37° C.) 23.79 ± 2.023 μg β-gal/mg beads.
Take “E537D mutant: N-terminal His-tagged E. coli β-galactosidase with Glu537 replaced by Asp”: the “qm (μg β-gal/mg beads)” value by setting is: (4° C.) 9.575 ± 0.877 μg β-gal/mg beads; (25° C.) 47.81±1.273 μg β-gal/mg beads; (37° C.) 19.26 ± 1.197 μg β-gal/mg beads.

These data come from US10154673B2, “Method of removing lactose from a solution” (Stellenbosch University, priority 2014, dated 2018).
